Experimental data published in the supplement of paper PMC10849652.
The list shows a part of the results. Residues, ends and D or L forms follow the SMILES beside them. *: point of attachment. Cbz = O=C(OCc1ccccc1)*

Amino acid sequences for entries named in this document (tags omitted). A change or cut given only in a name is not applied to a line headed by its entry.
UniProt Q8N9F7: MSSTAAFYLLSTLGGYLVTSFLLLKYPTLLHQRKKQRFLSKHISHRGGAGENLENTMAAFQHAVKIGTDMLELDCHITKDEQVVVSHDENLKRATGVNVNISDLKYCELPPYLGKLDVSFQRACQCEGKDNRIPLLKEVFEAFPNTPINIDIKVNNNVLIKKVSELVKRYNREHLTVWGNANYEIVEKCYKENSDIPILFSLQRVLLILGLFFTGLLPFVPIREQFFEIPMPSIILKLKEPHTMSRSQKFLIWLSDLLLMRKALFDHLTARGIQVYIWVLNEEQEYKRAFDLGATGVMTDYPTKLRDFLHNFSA
UniProt Q04446: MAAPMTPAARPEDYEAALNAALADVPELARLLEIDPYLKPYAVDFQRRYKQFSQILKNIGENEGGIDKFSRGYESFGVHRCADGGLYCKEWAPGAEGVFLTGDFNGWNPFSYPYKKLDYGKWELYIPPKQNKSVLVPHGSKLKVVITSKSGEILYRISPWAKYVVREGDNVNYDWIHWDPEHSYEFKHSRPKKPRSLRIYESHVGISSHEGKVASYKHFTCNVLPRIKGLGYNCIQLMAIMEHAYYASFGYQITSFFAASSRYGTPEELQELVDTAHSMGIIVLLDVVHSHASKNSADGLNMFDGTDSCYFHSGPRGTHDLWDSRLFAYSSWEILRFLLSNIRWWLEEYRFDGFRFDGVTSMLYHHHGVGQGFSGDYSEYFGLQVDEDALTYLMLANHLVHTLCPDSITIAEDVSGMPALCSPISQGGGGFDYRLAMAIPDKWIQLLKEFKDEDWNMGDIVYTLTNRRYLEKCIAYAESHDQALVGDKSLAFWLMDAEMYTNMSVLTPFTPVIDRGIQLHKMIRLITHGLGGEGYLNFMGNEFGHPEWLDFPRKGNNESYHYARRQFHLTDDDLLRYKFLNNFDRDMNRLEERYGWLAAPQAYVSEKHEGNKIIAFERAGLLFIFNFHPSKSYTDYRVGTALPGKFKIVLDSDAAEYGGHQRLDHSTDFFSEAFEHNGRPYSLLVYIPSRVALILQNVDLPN
UniProt Q96NB1: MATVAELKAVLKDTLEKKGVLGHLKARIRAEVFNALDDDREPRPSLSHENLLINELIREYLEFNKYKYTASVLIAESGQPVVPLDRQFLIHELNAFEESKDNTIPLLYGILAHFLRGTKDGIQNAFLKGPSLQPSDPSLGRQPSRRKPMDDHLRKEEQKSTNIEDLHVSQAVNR
UniProt Q5TBA9: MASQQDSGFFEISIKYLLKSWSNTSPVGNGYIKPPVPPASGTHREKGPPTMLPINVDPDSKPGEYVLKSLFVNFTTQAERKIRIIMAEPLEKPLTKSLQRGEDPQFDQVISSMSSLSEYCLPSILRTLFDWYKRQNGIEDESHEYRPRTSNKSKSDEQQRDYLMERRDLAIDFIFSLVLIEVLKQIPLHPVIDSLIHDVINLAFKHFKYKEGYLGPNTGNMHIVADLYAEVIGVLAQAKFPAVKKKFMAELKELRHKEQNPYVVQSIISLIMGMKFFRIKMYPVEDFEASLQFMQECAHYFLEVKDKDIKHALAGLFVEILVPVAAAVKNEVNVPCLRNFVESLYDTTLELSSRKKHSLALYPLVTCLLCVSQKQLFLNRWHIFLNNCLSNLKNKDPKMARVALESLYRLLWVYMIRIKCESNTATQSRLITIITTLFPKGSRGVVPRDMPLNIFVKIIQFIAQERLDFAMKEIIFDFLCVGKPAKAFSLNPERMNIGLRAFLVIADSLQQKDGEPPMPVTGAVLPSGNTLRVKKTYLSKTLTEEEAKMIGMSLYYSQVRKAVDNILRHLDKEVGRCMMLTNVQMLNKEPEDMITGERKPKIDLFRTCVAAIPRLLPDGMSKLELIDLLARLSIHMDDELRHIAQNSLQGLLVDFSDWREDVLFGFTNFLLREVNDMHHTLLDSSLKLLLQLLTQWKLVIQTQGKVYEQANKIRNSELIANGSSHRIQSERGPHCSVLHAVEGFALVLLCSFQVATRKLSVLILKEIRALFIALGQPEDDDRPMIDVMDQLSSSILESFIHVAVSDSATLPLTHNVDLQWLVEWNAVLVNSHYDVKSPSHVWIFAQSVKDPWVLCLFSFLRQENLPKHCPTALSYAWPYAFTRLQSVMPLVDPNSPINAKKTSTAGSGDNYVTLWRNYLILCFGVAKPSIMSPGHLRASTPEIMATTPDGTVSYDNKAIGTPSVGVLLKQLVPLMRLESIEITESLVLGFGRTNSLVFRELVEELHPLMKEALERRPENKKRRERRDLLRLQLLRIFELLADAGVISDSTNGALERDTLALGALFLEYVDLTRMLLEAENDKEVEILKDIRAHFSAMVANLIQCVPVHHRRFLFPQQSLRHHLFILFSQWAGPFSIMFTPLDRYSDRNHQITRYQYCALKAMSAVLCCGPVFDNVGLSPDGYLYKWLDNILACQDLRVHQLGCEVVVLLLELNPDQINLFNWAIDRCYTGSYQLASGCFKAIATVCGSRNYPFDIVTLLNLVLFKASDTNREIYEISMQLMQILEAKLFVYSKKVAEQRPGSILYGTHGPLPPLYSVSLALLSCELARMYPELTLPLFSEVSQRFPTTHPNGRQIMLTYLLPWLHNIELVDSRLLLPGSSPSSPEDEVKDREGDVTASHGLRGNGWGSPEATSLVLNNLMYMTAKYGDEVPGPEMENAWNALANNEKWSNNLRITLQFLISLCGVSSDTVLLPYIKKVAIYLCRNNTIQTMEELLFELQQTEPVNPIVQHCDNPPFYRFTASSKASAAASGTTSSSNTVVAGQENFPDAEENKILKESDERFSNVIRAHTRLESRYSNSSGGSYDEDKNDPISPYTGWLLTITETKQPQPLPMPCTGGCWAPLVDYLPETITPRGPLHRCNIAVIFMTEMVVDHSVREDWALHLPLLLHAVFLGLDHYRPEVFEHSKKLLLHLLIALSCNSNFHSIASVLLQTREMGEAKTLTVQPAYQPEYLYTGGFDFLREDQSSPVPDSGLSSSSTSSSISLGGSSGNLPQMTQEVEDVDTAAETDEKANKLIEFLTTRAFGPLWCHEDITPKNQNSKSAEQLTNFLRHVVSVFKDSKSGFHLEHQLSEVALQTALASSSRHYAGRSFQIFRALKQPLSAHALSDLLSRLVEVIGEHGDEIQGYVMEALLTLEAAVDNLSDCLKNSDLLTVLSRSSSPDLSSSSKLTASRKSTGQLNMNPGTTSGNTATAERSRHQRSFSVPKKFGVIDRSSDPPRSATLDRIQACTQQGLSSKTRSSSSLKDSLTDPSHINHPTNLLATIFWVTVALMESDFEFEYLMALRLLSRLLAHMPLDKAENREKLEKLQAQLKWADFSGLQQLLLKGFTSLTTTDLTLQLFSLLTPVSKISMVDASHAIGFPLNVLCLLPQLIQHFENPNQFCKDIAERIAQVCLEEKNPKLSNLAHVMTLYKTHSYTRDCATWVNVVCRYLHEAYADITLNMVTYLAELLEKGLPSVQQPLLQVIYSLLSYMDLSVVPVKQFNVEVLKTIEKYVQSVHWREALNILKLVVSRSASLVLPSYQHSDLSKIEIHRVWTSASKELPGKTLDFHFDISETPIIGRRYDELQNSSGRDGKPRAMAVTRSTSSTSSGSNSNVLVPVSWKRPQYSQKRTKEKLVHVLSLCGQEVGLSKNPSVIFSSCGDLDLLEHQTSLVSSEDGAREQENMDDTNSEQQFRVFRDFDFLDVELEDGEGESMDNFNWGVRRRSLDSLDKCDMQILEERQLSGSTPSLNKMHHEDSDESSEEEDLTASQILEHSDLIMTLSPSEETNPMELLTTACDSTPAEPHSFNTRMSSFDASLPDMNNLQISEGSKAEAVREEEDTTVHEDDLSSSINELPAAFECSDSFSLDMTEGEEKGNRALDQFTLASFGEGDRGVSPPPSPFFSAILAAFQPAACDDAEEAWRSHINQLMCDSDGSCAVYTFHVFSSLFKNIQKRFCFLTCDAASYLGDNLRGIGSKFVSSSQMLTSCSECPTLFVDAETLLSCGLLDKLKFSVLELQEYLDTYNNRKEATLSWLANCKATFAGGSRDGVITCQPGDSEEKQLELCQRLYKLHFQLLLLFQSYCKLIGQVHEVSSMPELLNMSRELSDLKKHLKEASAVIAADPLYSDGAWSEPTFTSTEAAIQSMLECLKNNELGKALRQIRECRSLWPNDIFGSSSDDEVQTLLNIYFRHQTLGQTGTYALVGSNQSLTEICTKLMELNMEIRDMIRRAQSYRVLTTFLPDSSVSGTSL
UniProt Q9NXC2: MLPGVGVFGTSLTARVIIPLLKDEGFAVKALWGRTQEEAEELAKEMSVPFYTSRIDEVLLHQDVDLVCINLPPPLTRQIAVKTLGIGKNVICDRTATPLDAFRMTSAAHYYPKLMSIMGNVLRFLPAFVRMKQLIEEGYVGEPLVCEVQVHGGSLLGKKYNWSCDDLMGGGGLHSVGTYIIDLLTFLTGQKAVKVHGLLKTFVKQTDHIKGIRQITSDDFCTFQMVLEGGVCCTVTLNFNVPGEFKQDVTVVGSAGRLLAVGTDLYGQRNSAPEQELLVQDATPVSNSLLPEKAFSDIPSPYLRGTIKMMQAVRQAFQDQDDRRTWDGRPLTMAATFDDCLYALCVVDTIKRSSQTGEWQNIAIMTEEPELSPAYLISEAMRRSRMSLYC
UniProt P15407: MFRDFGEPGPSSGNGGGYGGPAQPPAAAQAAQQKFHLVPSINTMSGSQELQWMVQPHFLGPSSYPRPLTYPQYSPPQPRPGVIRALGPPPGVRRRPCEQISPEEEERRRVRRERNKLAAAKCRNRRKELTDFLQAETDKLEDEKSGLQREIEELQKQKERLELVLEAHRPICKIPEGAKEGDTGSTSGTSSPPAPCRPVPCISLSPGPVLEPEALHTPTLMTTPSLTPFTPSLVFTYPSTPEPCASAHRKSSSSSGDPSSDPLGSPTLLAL
UniProt Q9BYC5: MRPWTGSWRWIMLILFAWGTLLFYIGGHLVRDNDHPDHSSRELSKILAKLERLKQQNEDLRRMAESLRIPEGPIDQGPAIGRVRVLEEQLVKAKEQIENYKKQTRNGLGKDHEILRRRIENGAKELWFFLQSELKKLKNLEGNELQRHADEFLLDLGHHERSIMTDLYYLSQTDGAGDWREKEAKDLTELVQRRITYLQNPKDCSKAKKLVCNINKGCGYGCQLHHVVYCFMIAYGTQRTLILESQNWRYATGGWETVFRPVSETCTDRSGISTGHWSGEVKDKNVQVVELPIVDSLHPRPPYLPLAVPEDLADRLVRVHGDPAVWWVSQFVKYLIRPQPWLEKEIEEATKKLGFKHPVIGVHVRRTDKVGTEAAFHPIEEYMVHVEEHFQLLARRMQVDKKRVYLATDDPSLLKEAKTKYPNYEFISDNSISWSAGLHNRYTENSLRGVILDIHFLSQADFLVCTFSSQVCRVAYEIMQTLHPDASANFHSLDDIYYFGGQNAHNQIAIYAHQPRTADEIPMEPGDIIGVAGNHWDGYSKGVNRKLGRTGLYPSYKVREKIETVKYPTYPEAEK
UniProt P19440: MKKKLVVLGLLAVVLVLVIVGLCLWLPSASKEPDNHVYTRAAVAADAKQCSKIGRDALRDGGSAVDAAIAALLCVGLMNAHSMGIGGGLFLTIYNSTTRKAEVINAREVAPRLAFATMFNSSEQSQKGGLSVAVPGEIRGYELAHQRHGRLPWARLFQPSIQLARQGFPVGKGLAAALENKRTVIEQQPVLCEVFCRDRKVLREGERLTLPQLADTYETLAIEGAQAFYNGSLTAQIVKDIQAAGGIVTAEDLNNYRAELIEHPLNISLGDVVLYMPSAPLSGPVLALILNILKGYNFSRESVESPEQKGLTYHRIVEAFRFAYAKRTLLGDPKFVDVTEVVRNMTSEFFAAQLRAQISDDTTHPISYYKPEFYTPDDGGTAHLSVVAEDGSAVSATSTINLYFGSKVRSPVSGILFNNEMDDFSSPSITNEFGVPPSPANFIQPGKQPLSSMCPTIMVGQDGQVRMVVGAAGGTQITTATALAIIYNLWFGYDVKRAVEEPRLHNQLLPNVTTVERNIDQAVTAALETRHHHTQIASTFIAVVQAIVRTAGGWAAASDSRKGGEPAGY
UniProt Q13467, whole entry, looked up: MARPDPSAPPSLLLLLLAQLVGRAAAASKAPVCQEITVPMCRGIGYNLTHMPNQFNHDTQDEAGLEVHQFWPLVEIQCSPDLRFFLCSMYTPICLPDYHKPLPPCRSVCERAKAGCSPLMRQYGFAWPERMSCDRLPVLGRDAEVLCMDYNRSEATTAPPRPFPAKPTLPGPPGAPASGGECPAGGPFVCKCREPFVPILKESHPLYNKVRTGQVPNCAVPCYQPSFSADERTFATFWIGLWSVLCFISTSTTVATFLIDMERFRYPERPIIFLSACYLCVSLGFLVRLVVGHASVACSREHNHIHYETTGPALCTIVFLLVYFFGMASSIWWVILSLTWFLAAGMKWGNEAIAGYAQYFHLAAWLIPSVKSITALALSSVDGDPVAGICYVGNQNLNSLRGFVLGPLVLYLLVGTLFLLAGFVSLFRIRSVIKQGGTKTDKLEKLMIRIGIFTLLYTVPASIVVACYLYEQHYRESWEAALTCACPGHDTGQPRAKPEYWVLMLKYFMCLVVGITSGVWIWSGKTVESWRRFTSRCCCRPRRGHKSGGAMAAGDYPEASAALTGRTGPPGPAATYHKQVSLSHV

How the values were obtained:
Experiment in all cases: log2 fold change, soluble protein after heating vs DMSO (PISA); higher = thermal stabilisation; K562 cells, 10 uM, 30 min; active = over 0.2 and 3.5 SD of the protein, either way, in both replicates (recomputed)
erlotinib = compound: C#Cc1cccc(Nc2ncnc3cc(OCCOC)c(OCCOC)cc23)c1 [erlotinib]
How it was run: (§1)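 Thermal stability values are relative to control samples and come from duplicates. They are expressed as log2 fold changes. For measurement, K562 cells (2×10^6 cells/mL) received 10 μM compound for 30 min, and aliquots were heated for 3 min over 48°C-58°C, pooled, and extracted at 4°C in PBS with 0.5% NP-40. Soluble protein, the supernatant after 21,000xg for 90 min, was quantified by TMTpro 16plex LC-MS/MS with equalised channel sums.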

[1] = compound: C/C(=N\NC(=O)C1=CC(=CC=C1)S(=O)(=O)N2CCOCC2)/C3=C(C=CC(=C3)Cl)O
How it was run: as §1

[2] = compound: C1=CC(=C(C=C1Cl)C2=NC3=NC=CN=C3C(=N2)NC4=CC=NC=C4)F
How it was run: as §1

[3] = compound: C1=CC(=CC=C1C2=NC3=C(N2)C=C(C=C3)C(=O)N)OC4=CC=C(C=C4)Cl
How it was run: as §1

[4] = compound: C1=CC2=C(C=CC(=C2)/C=C\3/C(=O)NC(=NCC4=CC=CS4)S3)N=C1
How it was run: as §1

[5] = compound: C1=CC2=NC=CN=C2C=C1/C=C/3\C(=O)NC(=O)S3
How it was run: as §1

[6] = compound: C1=CC=C(C=C1)C2=NC(=C(N2)C3=CC=NC=C3)C4=CC(=C(C=C4)Cl)O
How it was run: as §1

[7] = compound: C1=CC=C2C(=C1)C3=NNC4=CC=CC(=C43)C2=O
How it was run: as §1

[8] = compound: C1CCN(C1)C(=O)NC2=CC=CC(=C2)NC3=NC=C(C(=N3)NCCC4=CN=CN4)Br
How it was run: as §1

[9] = compound: C1CN(CCC1(CC2=CC=C(C=C2)Cl)N)C3=NC=NC4=C3C=CN4
How it was run: as §1

IRAK-1-4 Inhibitor I = compound: C1COCCN1CCN2C3=CC=CC=C3N=C2NC(=O)C4=CC(=CC=C4)[N+](=O)[O-] [IRAK-1-4 Inhibitor I]
How it was run: as §1

ibrutinib = compound: C=CC(=O)N1CCC[C@@H](n2nc(-c3ccc(Oc4ccccc4)cc3)c3c(N)ncnc32)C1 [ibrutinib]
How it was run: as §1

[10] = compound: CC(=O)c1cnc2ccc(-c3cc(Cl)c(O)c(Cl)c3)nc2c1N[C@H]1CC[C@H](CN(C)C)CC1
How it was run: as §1

ralimetinib = compound: CC(C)(C)Cn1c(N)nc2ccc(-c3[nH]c(C(C)(C)C)nc3-c3ccc(F)cc3)nc21 [ralimetinib]
How it was run: as §1

[11] = compound: CC(C)(O)CC(=O)NCCn1ccc2ncnc(Nc3ccc(Oc4cccc(C(F)(F)F)c4)c(Cl)c3)c21
How it was run: as §1

[12] = compound: CC(C)C1=C2N=C(C=C(N2N=C1)NCC3=CC=CC=C3)NCCCCCCN
How it was run: as §1

[13] = compound: CC(C)C[C@@H](C=O)NC(=O)[C@H](CC(C)C)NC(=O)[C@H](CC(C)C)NC(=O)OCc1ccccc1
How it was run: as §1

pinometostat = compound: CC(C)N(C[C@H]1O[C@@H](n2cnc3c(N)ncnc32)[C@H](O)[C@@H]1O)[C@H]1C[C@@H](CCc2nc3cc(C(C)(C)C)ccc3[nH]2)C1 [pinometostat]
How it was run: as §1

[14] = compound: CC1=C(C2=C(C=C1)C(=O)C3=CC=CC=C3N2CCCN)C
How it was run: as §1

[15] = compound: CC1=C(C(CC(=O)N1)C2=CC=C(C=C2)C(F)(F)F)C(=O)NC3=C(C=C4C(=C3)C=NN4)F
How it was run: as §1

Measured: log2 fold change

GDPD1 (UniProt Q8N9F7)
inactive: erlotinib 0.077 | [1] 0.024 | [2] -0.061 | [3] -0.018 | [4] -0.015 | [5] 0.01 | [6] 0.048 | [7] -0.018 | [8] -0.037 | [9] 0.024 | IRAK-1-4 Inhibitor I 0.02 | ibrutinib -0.03 | [10] 0.044 | ralimetinib 0.066 | [11] -0.03 | [12] 0.04 | [13] 0.03 | pinometostat -0.027 | [14] -0.015

GBE1 (UniProt Q04446)
inactive: erlotinib 0.008 | [1] 0.135 | [2] 0.037 | [3] -0.057 | [4] 0.158 | [5] -0.019 | [6] -0.058 | [7] -0.03 | [8] -0.061 | [9] -0.108 | IRAK-1-4 Inhibitor I -0.241 | ibrutinib -0.026 | [10] -0.102 | ralimetinib 0.051 | [11] -0.074 | [12] -0.23 | [13] 0.027 | pinometostat 0.186 | [14] 0.04

FZD1 (UniProt Q9UP38)
inactive: erlotinib -0.035 | [2] 0.005 | [3] 0.117 | [5] -0.049 | ibrutinib -0.154 | [11] -0.128 | [12] -0.573 | [15] 0.288

GCFC2 (UniProt P16383)
inactive: erlotinib 0.024 | [1] 0.005 | [2] 0.027 | [3] 0 | [4] -0.076 | [5] -0.108 | [6] -0.04 | [7] 0 | [8] -0.116 | [9] 0.019 | ibrutinib 0.066 | [10] 0.045 | ralimetinib -0.028 | [11] -0.278 | [12] 0.021 | [13] 0.056 | [15] 0.028 | [14] -0.014

GCC1 (UniProt Q96CN9)
inactive: erlotinib -0.132 | [2] -0.322 | [3] 0.187 | [6] 0.087 | IRAK-1-4 Inhibitor I -0.169 | ralimetinib 0.247 | [11] 0.048 | [12] 0.005 | [13] -0.006 | pinometostat 0.196 | [15] 0.077

FOPNL (UniProt Q96NB1)
inactive: erlotinib -0.022 | [1] 0.001 | [2] 0.201 | [3] 0 | [4] 0.028 | [5] 0.032 | [7] -0.038 | [8] -0.071 | [9] -0.009 | IRAK-1-4 Inhibitor I 0.026 | ibrutinib -0.002 | [10] -0.005 | [11] 0.157 | [12] 0.041 | pinometostat 0.033 | [15] -0.399 | [14] -0.041

FRY (UniProt Q5TBA9)
inactive: erlotinib 0.04 | [1] 0.092 | [2] -0.065 | [3] 0.027 | [4] 0.058 | [5] 0.129 | [7] -0.06 | [8] -0.063 | [9] -0.12 | ibrutinib -0.122 | [10] -0.049 | [11] 0.004 | [12] -0.149 | [14] -0.007

FOXO3 (UniProt O43524)
inactive: erlotinib 0.026 | [1] -0.007 | [2] -0.025 | [3] -0.079 | [4] 0.027 | [6] -0.035 | [7] 0.038 | [8] -0.224 | [9] -0.283 | IRAK-1-4 Inhibitor I -0.046 | [10] -0.427 | ralimetinib -0.083 | [11] 0.086 | [12] -0.091 | [13] 0.234 | pinometostat 0 | [14] 0.081

GFOD1 (UniProt Q9NXC2)
inactive: erlotinib -0.249 | [2] -0.219 | [3] 0.163 | IRAK-1-4 Inhibitor I -0.102 | [11] 0.046 | [12] -0.186 | pinometostat 0.039

FOSL1 (UniProt P15407)
inactive: erlotinib -0.029 | [1] -0.122 | [2] -0.088 | [3] -0.086 | [4] 0.106 | [5] -0.061 | [7] -0.042 | IRAK-1-4 Inhibitor I 0.065 | ibrutinib 0.099 | [10] -0.096 | [11] -0.051 | [12] 0.05 | pinometostat 0 | [15] -0.025

GARS1 (UniProt H7C443)
inactive: erlotinib 0.266 | [1] -0.217 | [2] -0.144 | [3] -0.005 | [4] 0.188 | [6] -0.352 | [7] -0.039 | [8] 0.162 | [9] -0.026 | IRAK-1-4 Inhibitor I 0.016 | [10] -0.098 | ralimetinib -0.162 | [11] 0.103 | [12] 0.001 | [13] 0.148 | pinometostat 0.033 | [15] 0.025 | [14] 0.036

FUT8 (UniProt Q9BYC5)
inactive: erlotinib -0.036 | [1] 0.019 | [2] -0.07 | [3] -0.12 | [4] -0.145 | [5] -0.055 | [6] -0.004 | [7] -0.038 | [8] 0.045 | [9] -0.038 | IRAK-1-4 Inhibitor I -0.02 | ibrutinib 0.064 | [10] -0.098 | ralimetinib -0.087 | [11] 0.019 | [12] -0.133 | [13] 0.053 | pinometostat 0.065 | [14] 0.077

GAB2 (UniProt Q9UQC2)
inactive: erlotinib -0.035 | [1] 0.149 | [2] -0.033 | [3] 0.231 | [4] -0.04 | [6] -0.294 | [7] -0.196 | [8] -0.29 | [9] 0.012 | IRAK-1-4 Inhibitor I -0.097 | [10] -0.573 | ralimetinib 0.059 | [11] -0.242 | [12] -0.616 | [13] 0.094 | pinometostat 0.081 | [14] 0.004

GGT1 (UniProt P19440)
inactive: erlotinib 0.019 | [1] 0.028 | [2] 0.124 | [3] 0.003 | [4] 0.008 | [5] 0.126 | [7] -0.084 | [8] 0.119 | [9] 0.06 | IRAK-1-4 Inhibitor I 0.039 | ibrutinib -0.027 | [10] 0.01 | [11] -0.086 | [12] 0.005 | pinometostat -0.116 | [14] -0.121

GEMIN8 (UniProt Q9NWZ8)
inactive: erlotinib -0.047 | [1] -0.021 | [2] 0.07 | [3] 0.098 | [4] 0.128 | [7] 0.067 | [8] -0.085 | [9] -0.089 | [10] 0.029 | [11] -0.133 | [12] 0.006 | [15] 0.021 | [14] 0.061

GBA2 (UniProt Q9HCG7)
inactive: erlotinib 0.063 | [1] 0.095 | [2] 0.04 | [3] 0.01 | [4] 0.033 | [5] -0.023 | [7] 0.028 | [8] 0.034 | [9] 0.104 | IRAK-1-4 Inhibitor I -0.082 | ibrutinib -0.027 | [10] -0.073 | [11] 0.048 | [12] 0.326 | pinometostat 0.121 | [14] -0.003

GDI2 (UniProt Q5SX86)
inactive: erlotinib -0.038 | [2] 0.023 | [3] -0.151 | [5] 0.102 | [6] -0.217 | IRAK-1-4 Inhibitor I 0.01 | ibrutinib 0.024 | ralimetinib -0.129 | [11] 0.036 | [12] 0.046 | [13] -0.103 | pinometostat -0.038

GAA (UniProt P10253)
inactive: erlotinib 0.178 | [1] 0.029 | [2] -0.05 | [3] -0.4 | [4] 0.091 | [7] -0.138 | [8] 0.009 | [9] -0.076 | IRAK-1-4 Inhibitor I 0.043 | [10] -0.211 | [11] 0.076 | [12] 0.232 | pinometostat 0.093 | [14] 0.274

FZD5 (UniProt Q13467)
inactive: erlotinib 0.169 | [2] -0.103 | [3] -0.071 | [5] -0.012 | [8] 0.265 | [9] 0.277 | ibrutinib 0.215 | [11] 0.029 | [12] 0.322 | [14] 0.164

2 neighbouring entries from above, for reference:
GEMIN8 (UniProt Q9NWZ8)
inactive: erlotinib -0.047 | [1] -0.021 | [2] 0.07 | [3] 0.098 | [4] 0.128 | [7] 0.067 | [8] -0.085 | [9] -0.089 | [10] 0.029 | [11] -0.133 | [12] 0.006 | [15] 0.021 | [14] 0.061

GBA2 (UniProt Q9HCG7)
inactive: erlotinib 0.063 | [1] 0.095 | [2] 0.04 | [3] 0.01 | [4] 0.033 | [5] -0.023 | [7] 0.028 | [8] 0.034 | [9] 0.104 | IRAK-1-4 Inhibitor I -0.082 | ibrutinib -0.027 | [10] -0.073 | [11] 0.048 | [12] 0.326 | pinometostat 0.121 | [14] -0.003

Next records follow:

FTSJ3 (UniProt Q8IY81)
inactive: erlotinib -0.127 | [1] 0.012 | [3] 0.104 | [4] -0.014 | [6] 0.029 | [7] 0.052 | [10] -0.048 | ralimetinib 0.194 | [12] -0.018 | [13] 0.203

GAK (UniProt O14976)
inactive: erlotinib 0.64 | [1] -0.78 | [2] -0.133 | [3] -0.821 | [4] 0.527 | [6] 0.639 | [7] 0.955 | [8] 1.08 | [9] -0.265 | IRAK-1-4 Inhibitor I -0.222 | [10] 1.15 | ralimetinib 1.13 | [11] -0.015 | [12] -0.81 | [13] 0.084 | pinometostat 0.344 | [14] -0.187
